Experimental data as given in publication PMC6213189, “ABD-Derived Protein Blockers of Human IL-17 Receptor A as Non-IgG Alternatives for Modulation of IL-17-Dependent Pro-Inflammatory Axis” (International Journal of Molecular Sciences, 2018).
Results are given in words; binding and its absence hold for the method and conditions named. Some binding calls cover weakened binding; strength is not graded here. For some assays here: Tags and fused reporters may be left off the sequences shown. Values belong to the molecule of their own block, whether it stands above or below them.

The chains behind the UniProt entries cited, without tags or fusion partners. Where a name states a change or a piece, a line headed by the entry shows the natural chain unless it says otherwise. Residues count along the entry.
UniProt Q96F46: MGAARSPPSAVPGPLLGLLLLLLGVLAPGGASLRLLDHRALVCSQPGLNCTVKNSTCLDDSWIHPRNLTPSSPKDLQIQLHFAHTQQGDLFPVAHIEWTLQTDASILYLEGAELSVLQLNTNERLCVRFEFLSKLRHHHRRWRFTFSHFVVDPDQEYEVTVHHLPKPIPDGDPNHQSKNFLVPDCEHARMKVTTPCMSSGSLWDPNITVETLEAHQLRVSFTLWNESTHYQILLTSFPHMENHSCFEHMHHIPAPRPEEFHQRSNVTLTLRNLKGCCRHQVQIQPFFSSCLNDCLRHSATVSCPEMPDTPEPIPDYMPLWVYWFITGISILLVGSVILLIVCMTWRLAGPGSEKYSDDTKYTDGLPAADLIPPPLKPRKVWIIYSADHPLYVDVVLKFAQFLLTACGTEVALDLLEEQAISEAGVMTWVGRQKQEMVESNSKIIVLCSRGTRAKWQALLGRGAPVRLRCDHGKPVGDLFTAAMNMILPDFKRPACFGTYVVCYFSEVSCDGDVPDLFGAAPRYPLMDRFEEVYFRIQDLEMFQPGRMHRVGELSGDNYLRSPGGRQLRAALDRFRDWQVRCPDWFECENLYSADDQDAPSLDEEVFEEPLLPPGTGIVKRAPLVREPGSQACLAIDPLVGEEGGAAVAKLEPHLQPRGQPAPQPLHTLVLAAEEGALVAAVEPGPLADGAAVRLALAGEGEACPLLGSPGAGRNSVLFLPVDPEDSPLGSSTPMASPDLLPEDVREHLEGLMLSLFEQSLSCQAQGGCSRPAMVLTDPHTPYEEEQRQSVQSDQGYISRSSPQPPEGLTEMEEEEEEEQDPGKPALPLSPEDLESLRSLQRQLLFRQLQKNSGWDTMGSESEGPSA
human IL-17RA on the cell surface (human (endogenous in THP-1 and HaCaT)): residues 33-866 of Q96F46
extracellular part of the human IL-17RA (IL-17RAex): residues 33-320 of Q96F46
UniProt Q16552, residues 24-155: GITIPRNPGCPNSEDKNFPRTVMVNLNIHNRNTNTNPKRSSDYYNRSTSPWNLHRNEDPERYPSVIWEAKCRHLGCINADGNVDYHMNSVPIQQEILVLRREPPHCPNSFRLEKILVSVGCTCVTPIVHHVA

Assays:
[1] = molecular target: extracellular part of the human IL-17RA (IL-17RAex) (human) (UniProt Q96F46); assay: ELISA; soluble IL-17RAex (purified under native conditions) tested with human IL-17A; Figure S1B; set-up not told further; both purified
[2] = molecular target: human IL-17RA on the cell surface (human (endogenous in THP-1 and HaCaT)) (UniProt Q96F46); assay: flow cytometry on cells; cell-surface competition: ARS ligands against human IL-17A for binding to THP-1 cells; Figure S5; only the binder purified
[3] = molecular target: extracellular part of the human IL-17RA (IL-17RAex) (human) (UniProt Q96F46); assay: ELISA; competition: purified short His6-ARS-AviTag variants against IL-17A for binding to IL-17RA; Figure S4; which IL-17RA form was coated is not said; both purified
[4] = molecular target: extracellular part of the human IL-17RA (IL-17RAex) (human) (UniProt Q96F46); assay: ELISA; IL-17RAex purified from the insoluble fraction in urea, diluted in coating buffer and refolded on the Polysorp plate by washes with PBS, tested with human IL-17A; Figure S1B; both purified
[5] = molecular target: Recombinant Human IL-17 RA/IL-17 R Fc Chimera (human) (UniProt Q96F46); assay: ELISA; competition: IL-17RA-IgG chimera coated; 10 nM IL-17A with serially diluted His6-ARS-TolA-AVI in PBSTB; bound IL-17A detected with anti-IL-17A polyclonal antibody and anti-IgG-HRP; both purified
[6] = molecular target: extracellular part of the human IL-17RA (IL-17RAex) (human) (UniProt Q96F46); assay: ELISA; competition: recombinant IL-17RA from E. coli SHuffle coated at 5 µg/mL; 10 nM IL-17A with serially diluted His6-ARS-TolA-AVI in PBSTB; bound IL-17A detected with anti-IL-17 polyclonal antibody; Figure S2; both purified
[7] = molecular target: human IL-17RA on the cell surface (human (endogenous in THP-1 and HaCaT)) (UniProt Q96F46); assay: flow cytometry on cells; 2.5 x 10^5 THP-1 cells with biotinylated His6-ARS-TolA-AVI (10 µg/mL by the legend) for 30 min at 4 °C in cHBSS; streptavidin-PE; only the binder purified

Molecule: Human IL-17A (from UniProt Q16552 24-155) (ligand)
- binding [1]: binds
- binding [2]: binds
- binding [3]: binds
- binding [4]: binds
- binding [5]: binds
- binding [6]: binds

Molecule: LAEAKVLANRELDKYGVSDMYKNVINIAWWVSIVKYPIDCILALLP (designed binder, biotin on the AviTag (in vivo biotinylated)) [His6-ARS019-TolA-AVI]
- binding [7]: binds

Molecule: LAEAKVLANRELDKYGVSDLYKNMINMALWVTGVKWLIDPILATLP (designed binder, biotin on the AviTag (in vivo biotinylated)) [His6-ARS043-TolA-AVI]
- binding [7]: binds

More lines, now with the values ahead:

- binding [7]: binds
Molecule: LAEAKVLANRELDKYGVSDVYKLINYACPVTWVKWVIDPILAMLP (designed binder, biotin on the AviTag (in vivo biotinylated)) [His6-ARS004-TolA-AVI]

- binding [7]: binds
Molecule: LAEAKVLANRELDKYGVSDVYKLINMALYVTGVKPWIDVILAVLP (designed binder, biotin on the AviTag (in vivo biotinylated)) [His6-ARS012-TolA-AVI]

- binding [7]: binds
Molecule: LAEAKVLANRELDKYGVSDVYKNLINYAWLVMWVPIDAILALLP (designed binder, biotin on the AviTag (in vivo biotinylated)) [His6-ARS014-TolA-AVI]
